Experimental data reported in publication PMC9681887.
Results are given in words; binding and its absence hold for the method and conditions named. Binding seen in cells or lysates may run through a third protein. Some entries that bind do so weakly or less than the wild type.

Protein sequences, listed by entry. Tags and fused reporters are not part of them.
UniProt O88907: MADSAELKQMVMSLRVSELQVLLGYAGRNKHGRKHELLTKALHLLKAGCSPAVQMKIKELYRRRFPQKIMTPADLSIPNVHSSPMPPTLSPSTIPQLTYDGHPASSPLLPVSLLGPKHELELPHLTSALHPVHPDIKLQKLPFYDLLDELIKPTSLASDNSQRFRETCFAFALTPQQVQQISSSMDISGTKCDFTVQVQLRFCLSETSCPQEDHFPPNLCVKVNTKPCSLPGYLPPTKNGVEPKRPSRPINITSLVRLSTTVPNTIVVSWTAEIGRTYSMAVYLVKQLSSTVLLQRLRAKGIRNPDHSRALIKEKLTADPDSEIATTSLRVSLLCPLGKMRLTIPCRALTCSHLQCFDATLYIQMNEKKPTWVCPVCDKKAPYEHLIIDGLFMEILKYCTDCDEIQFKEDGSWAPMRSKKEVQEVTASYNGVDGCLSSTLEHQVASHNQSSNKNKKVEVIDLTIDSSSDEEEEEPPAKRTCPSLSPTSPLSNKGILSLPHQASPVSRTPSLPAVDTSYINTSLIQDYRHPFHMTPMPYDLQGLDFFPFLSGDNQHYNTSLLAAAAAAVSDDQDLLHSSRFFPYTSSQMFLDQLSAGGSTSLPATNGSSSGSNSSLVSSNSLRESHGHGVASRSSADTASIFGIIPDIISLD

Target: T1, RIPK1 (ectopically expressed) (mouse) (UniProt Q60855)
T1 sequence: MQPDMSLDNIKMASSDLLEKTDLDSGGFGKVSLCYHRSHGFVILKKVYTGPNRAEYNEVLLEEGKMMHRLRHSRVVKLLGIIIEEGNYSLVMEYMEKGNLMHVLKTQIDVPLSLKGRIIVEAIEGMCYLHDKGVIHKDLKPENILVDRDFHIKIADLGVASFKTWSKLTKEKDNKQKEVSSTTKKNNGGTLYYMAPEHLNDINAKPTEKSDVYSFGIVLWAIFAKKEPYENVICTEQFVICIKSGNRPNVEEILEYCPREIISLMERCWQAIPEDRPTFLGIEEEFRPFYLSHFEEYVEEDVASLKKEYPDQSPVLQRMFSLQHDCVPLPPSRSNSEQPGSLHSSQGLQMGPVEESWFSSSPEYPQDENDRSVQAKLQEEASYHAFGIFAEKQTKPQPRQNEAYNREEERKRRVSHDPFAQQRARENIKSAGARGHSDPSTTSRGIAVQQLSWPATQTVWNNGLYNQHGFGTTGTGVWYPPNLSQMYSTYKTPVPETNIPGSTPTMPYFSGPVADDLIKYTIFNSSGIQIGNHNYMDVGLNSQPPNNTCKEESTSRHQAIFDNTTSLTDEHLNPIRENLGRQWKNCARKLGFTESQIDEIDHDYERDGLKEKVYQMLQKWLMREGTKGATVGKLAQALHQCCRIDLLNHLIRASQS
Assay: co-IP; ectopically expressed proteins (HEK293T where stated); lysate in 50 mM Tris-HCl pH 7.5, 150 mM NaCl, 1% NP40, 5% glycerol; antibody overnight at 4 °C, protein A/G agarose; immunoblot

PIAS1 (expressed in HEK293T cells) (from UniProt O88907 1-651) (enzyme)
binding: binds
